Where a protein sequence is shown, tags need not be part of it.

One series addresses T1, FLP recombinase (UniProt P03870).
T1 sequence (looked up, limits assumed): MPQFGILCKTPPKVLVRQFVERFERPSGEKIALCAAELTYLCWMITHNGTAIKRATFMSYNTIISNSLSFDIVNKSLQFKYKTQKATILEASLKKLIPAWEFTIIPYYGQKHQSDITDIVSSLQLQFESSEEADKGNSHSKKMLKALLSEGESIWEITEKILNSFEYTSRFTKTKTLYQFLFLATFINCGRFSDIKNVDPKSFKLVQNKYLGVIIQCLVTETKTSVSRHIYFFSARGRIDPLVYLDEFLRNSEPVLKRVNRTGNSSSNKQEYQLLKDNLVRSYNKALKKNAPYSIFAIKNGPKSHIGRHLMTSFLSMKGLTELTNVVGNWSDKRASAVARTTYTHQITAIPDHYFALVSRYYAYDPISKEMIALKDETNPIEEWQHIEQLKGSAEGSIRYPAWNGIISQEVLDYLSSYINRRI
The series can be described thus: activity in cells. The settings on record: partial recombination between two POTFRT sites in pPOTFRT2 (unrecombined fragment remained); 37 C; sequenced; protein in cells; only the site is given.

The next series has as its target T2, Cre recombinase (UniProt P06956).
T2 sequence (looked up, limits assumed): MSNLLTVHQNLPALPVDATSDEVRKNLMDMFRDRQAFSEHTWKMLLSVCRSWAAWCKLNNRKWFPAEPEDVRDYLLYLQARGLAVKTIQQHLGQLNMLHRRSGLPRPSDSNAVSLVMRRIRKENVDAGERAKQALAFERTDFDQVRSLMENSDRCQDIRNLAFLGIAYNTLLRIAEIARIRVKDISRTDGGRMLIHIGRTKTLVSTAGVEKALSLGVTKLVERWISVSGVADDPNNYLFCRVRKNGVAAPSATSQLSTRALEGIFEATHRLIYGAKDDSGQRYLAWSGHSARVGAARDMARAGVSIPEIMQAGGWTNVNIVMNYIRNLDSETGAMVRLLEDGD
The series is described as follows: activity in cells. The settings on record: protein in cells, only the site is given.

For “TCTGTTCCTATACTTTCTAGAGAATAGGAAGTTG (double strand) [potato frt-like site (POTFRT)]”, the “activity on this sequence” value in the series with FLP recombinase is listed as “active”.

For “CCGAATTCGTATAGCATACATTATACGAAGGCAT (double strand) [potato loxP-like site (POTLOXP)]”, the “activity on this sequence” value with Cre recombinase (recombination between two POTLOXP sites in pPOTLOXP2 and Stan2 derivatives, 37 C, sequenced, base pair faithful) is listed as “active”.

For the sequence “CTTCGTATAATGTATGCTATACGAA (double strand) [petunia-derived loxP site]”, in the series with Cre recombinase (intramolecular recombination between two direct sites in pUC57PhMCcabDP and pUC57PhMCcabPH, 37 C induction, none at 28 C uninduced), the “activity on this sequence” value was “active”.

These data come from US20120042409.
